Source: publication PMC10100727
These are yes or no findings as the source states them, for the method shown. Binding can be weak; no strength is given. For some of these results: Binding seen in cells or lysates may run through a third protein.

B1: STM1344 (protein, UniProt Q8ZPS6 1-237)
chain: MIASLDELYHSELFFLPVMDENARLVGLEIIATFAAEDGAVRMPTELVAPRLSVEEQYCLFVEKLALLETCQHFFIQHKLIAWLNLPPAISDLLLLDSELFSRAARFPFLELAINENYPGLNQGKNNETLANLAMHFPLMLANFGAGEASTKAIFDGLFKRVMLDKNFIQQRAEMISFEPFMHAIVAQISSSCESLMIAGIDTEAMFARAAPLGFSAFQGGLWPPVPVSQLIKLVQR

Key:
[1] = molecular target: T1, STM1344 coexpressed with StFlhD (Salmonella Typhimurium) (UniProt Q8ZPS6); assay: pull-down; coexpression of STM1344 and StFlhD in E. coli BL21(DE3), complex purified on a Ni-NTA affinity column
T1 sequence: B1 chain

[2] = molecular target: FlhD used in size exclusion chromatography (S. Typhimurium); assay: SEC; FlhD mixed at the appropriate ratio with STM1344, STM1697, or STM1344 plus STM1697; 10 min at 4°C; Superdex 200; both purified
[3] = molecular target: FlhD4C2 complex with a His tag (S. Typhimurium); assay: native gel or EMSA; FlhD4C2 and 49-bp flhB promoter DNA preincubated 10 min with different ratios of STM1344; native 5% polyacrylamide gel; ethidium bromide and Coomassie staining; both purified
[4] = molecular target: FlhD4C2 complex with a His tag (S. Typhimurium); assay: pull-down; FlhD4C2 with a His tag on HisLink resin, with STM1344 or mutants without the His tag; 4°C, 2 h; washed five times with 50 mM NaH2PO4, 300 mM NaCl, 20 mM imidazole pH 8.0; eluted with 250 mM imidazole; SDS-PAGE; both purified

| Molecule | binding [1] | binding [2] | binding [3] | binding [4] |
| --- | --- | --- | --- | --- |
| S. Typhimurium FlhD without His tag | binds |  |  |  |
| B1 |  | binds | binds | binds |
